# Measured values: the supplement of paper PMC4604168 (melanoma cell lines)
# This is one part of the list. Single values are uncertain, as repeats are few or missing.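 Cells were imaged in 1,536-well plates, and nuclei stained with an antibody against cleaved PARP were counted against all DNA-stained nuclei to give the apoptosis fraction. Screening doses were chosen to leave most cells alive, and resting and induced cleaved-PARP levels differ strongly between cell lines.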
# How the values were obtained:
# Experiment in all cases: cleaved PARP positive nuclei fraction relative to DMSO control; melanoma cells; higher = more apoptosis
# Details in all cases: library dose: low library concentration; 72 h
# COLO792 = test system: COLO792
# COLO800 = test system: COLO800
# COLO829 = test system: COLO829
# G361 = test system: G361
# IPC-298 = test system: IPC-298
# IST-MEL1 = test system: IST-MEL1
# LB2518-MEL = test system: LB2518-MEL
# LOXIMVI = test system: LOXIMVI
# MEL-HO = test system: MEL-HO
# MZ2-MEL = test system: MZ2-MEL
# MeWo = test system: MeWo
# RPMI7951 = test system: RPMI7951
# RVH-421 = test system: RVH-421
# SkMel28 = test system: SkMel28
# SkMel2 = test system: SkMel2
# SkMel30 = test system: SkMel30
# SkMel5 = test system: SkMel5
# UACC257 = test system: UACC257
# UACC62 = test system: UACC62
Structure (SMILES),cleaved PARP positive nuclei fraction (COLO792),cleaved PARP positive nuclei fraction (COLO800),cleaved PARP positive nuclei fraction (COLO829),cleaved PARP positive nuclei fraction (G361),cleaved PARP positive nuclei fraction (IPC-298),cleaved PARP positive nuclei fraction (IST-MEL1),cleaved PARP positive nuclei fraction (LB2518-MEL),cleaved PARP positive nuclei fraction (LOXIMVI),cleaved PARP positive nuclei fraction (MEL-HO),cleaved PARP positive nuclei fraction (MZ2-MEL),cleaved PARP positive nuclei fraction (MeWo),cleaved PARP positive nuclei fraction (RPMI7951),cleaved PARP positive nuclei fraction (RVH-421),cleaved PARP positive nuclei fraction (SkMel28),cleaved PARP positive nuclei fraction (SkMel2),cleaved PARP positive nuclei fraction (SkMel30),cleaved PARP positive nuclei fraction (SkMel5),cleaved PARP positive nuclei fraction (UACC257),cleaved PARP positive nuclei fraction (UACC62)
"CC(C)(C)c1cnc(CSc2cnc(NC(=O)C3CCNCC3)s2)o1 + Cn1cncc1[C@@](N)(c1ccc(Cl)cc1)c1ccc2c(c1)c(-c1cccc(Cl)c1)cc(=O)n2C [tipifarnib] (first compound 0.01 µM, partner dose 0.01 µM)",28%,89.9%,229%,132%,93.5%,106%,116%,238%,138%,126%,179%,78.5%,112%,68.8%,145%,149%,86.9%,279%,110%
"O=C(CCCCCCC(=O)Nc1ccccc1)NO [vorinostat] + C=CCn1c(=O)c2cnc(Nc3ccc(N4CCN(C)CC4)cc3)nc2n1-c1cccc(C(C)(C)O)n1 [MK1775] (first compound 0.08 µM, partner dose 0.02 µM)",68.4%,46.1%,36.5%,88.7%,70.2%,97.9%,52.3%,236%,276%,127%,202%,185%,177%,394%,37.4%,89.1%,245%,83.7%,109%
"Cc1ccc(NC(=O)c2cccc(N(C)C)c2)cc1NC(=O)c1ccc(O)cc1 + CN(C)S(=O)(=O)c1ccc2c(c1)/C(=C/c1cc3c([nH]1)CCCC3)C(=O)N2 [SU6656] (first compound 2 µM, partner dose 0.4 µM)",105%,55.4%,83.8%,93.3%,73.8%,106%,35.3%,224%,160%,56.3%,108%,95.1%,147%,269%,50%,111%,42.5%,89.6%,67%
"Cc1ccc(NC(=O)c2cccc(N(C)C)c2)cc1NC(=O)c1ccc(O)cc1 + C[C@@H]1CCN(C(=O)CC#N)C[C@@H]1N(C)c1ncnc2[nH]ccc12 [CP690550] (first compound 2 µM, partner dose 1 µM)",172%,69.5%,79%,108%,107%,103%,95.5%,74.2%,68.4%,80.1%,98.4%,93.2%,45.1%,107%,70.1%,63.5%,122%,61.5%,164%
"Cn1nnc2c(C(N)=O)ncn2c1=O [temozolomide] + O=C(O)c1ccc(-c2c[nH]c3ncc(-c4ccccc4)cc23)cc1C1CCCC1 [GSK650394] (first compound 2 µM, partner dose 0.16 µM)",118%,87.9%,96.4%,102%,101%,51.4%,46.2%,42.2%,38.4%,51.1%,89.6%,104%,102%,38.3%,87.2%,94.8%,122%,553%,121%
"CC1(C)NC(=O)N(c2ccc([N+](=O)[O-])c(C(F)(F)F)c2)C1=O [nilutamide] + Cc1cc(N2CCOCC2)cc2[nH]c(-c3c(NC[C@@H](O)c4cccc(Cl)c4)cc[nH]c3=O)nc12 [BMS536924] (first compound 1 µM, partner dose 0.2 µM)",82.3%,152%,259%,271%,91.5%,62.3%,87.2%,53.3%,139%,94.4%,192%,92.1%,85.1%,65.7%,56.7%,63.5%,35.9%,31.4%,99.2%
"Clc1ccc(Nc2nnc(Cc3ccncc3)c3ccccc23)cc1 [vatalanib] + Cc1cc(N2CCOCC2)cc2[nH]c(-c3c(NC[C@@H](O)c4cccc(Cl)c4)cc[nH]c3=O)nc12 [BMS536924] (first compound 2 µM, partner dose 0.2 µM)",84.1%,121%,89.5%,73.1%,61.2%,77.7%,67.7%,26.2%,571%,86%,156%,47.6%,46.6%,57.5%,94%,31%,99.3%,55.2%,113%
"Cc1cc(N2CCOCC2)cc2[nH]c(-c3c(NC[C@@H](O)c4cccc(Cl)c4)cc[nH]c3=O)nc12 + NCC(=O)Nc1ccc(-n2nc(C(F)(F)F)cc2-c2ccc3c(ccc4ccccc43)c2)cc1 [OSU03012] (first compound 0.2 µM, partner dose 1 µM)",107%,217%,118%,122%,219%,340%,50.7%,486%,277%,119%,183%,84.4%,40.6%,280%,254%,181%,148%,53.4%,144%
"OCc1c[nH]c2ccccc12 [Indole-3-carbinol] + CC(C)(C)c1cnc(CSc2cnc(NC(=O)C3CCNCC3)s2)o1 [SNS-032] (first compound 0.8 µM, partner dose 0.01 µM)",128%,101%,174%,79.3%,59%,50.5%,109%,106%,71.3%,145%,49.7%,111%,134%,155%,82.3%,60.3%,92.4%,99.5%,104%
"C=CCn1c(=O)c2cnc(Nc3ccc(N4CCN(C)CC4)cc3)nc2n1-c1cccc(C(C)(C)O)n1 + CN(C)S(=O)(=O)c1ccc2c(c1)/C(=C/c1cc3c([nH]1)CCCC3)C(=O)N2 [SU6656] (first compound 0.02 µM, partner dose 0.4 µM)",115%,137%,105%,138%,23.5%,86.7%,56.7%,131%,200%,237%,98.8%,47.2%,171%,62%,48.3%,255%,154%,538%,96.9%
"C=CCNC1=C2C[C@@H](C)C[C@H](OC)[C@H](O)[C@@H](C)/C=C(\C)[C@H](OC(N)=O)[C@@H](OC)/C=C\C=C(/C)C(=O)NC(=CC1=O)C2=O [Tanespimycin] + NC(=O)Nc1cc(-c2cccc(F)c2)sc1C(=O)N[C@H]1CCCNC1 [AZD7762] (first compound 0.002 µM, partner dose 0.02 µM)",187%,65.7%,101%,103%,166%,75.5%,76.3%,51.2%,87%,66.9%,190%,80.4%,53.7%,275%,116%,59.4%,159%,78.5%,53.1%
"NC(=O)Nc1cc(-c2cccc(F)c2)sc1C(=O)N[C@H]1CCCNC1 + CN(C)S(=O)(=O)c1ccc2c(c1)/C(=C/c1cc3c([nH]1)CCCC3)C(=O)N2 [SU6656] (first compound 0.02 µM, partner dose 0.4 µM)",149%,57.9%,61%,86.5%,201%,48.1%,92.4%,76.9%,70%,93.6%,37.3%,65.4%,104%,90%,30.5%,187%,70.8%,114%,105%
"Clc1ccc(Nc2nnc(Cc3ccncc3)c3ccccc23)cc1 [vatalanib] + O=C(O)c1ccc(-c2c[nH]c3ncc(-c4ccccc4)cc23)cc1C1CCCC1 [GSK650394] (first compound 2 µM, partner dose 0.16 µM)",144%,77%,145%,100%,47.3%,80.3%,92%,107%,103%,177%,139%,80.2%,76.1%,290%,128%,121%,159%,145%,89.8%
"COCC[n+]1c2c(n(Cc3cnccn3)c1C)C(=O)c1ccccc1C2=O + CN(NC(=O)CC(=O)NN(C)C(=S)c1ccccc1)C(=S)c1ccccc1 [STA4783] (first compound 0.0004 µM, partner dose 0.006 µM)",269%,257%,416%,193%,112%,28.5%,234%,40.3%,185%,393%,433%,125%,131%,177%,76.1%,89.7%,161%,14.3%,66.8%
"Clc1ccc(Nc2nnc(Cc3ccncc3)c3ccccc23)cc1 [vatalanib] + CN(C)S(=O)(=O)c1ccc2c(c1)/C(=C/c1cc3c([nH]1)CCCC3)C(=O)N2 [SU6656] (first compound 2 µM, partner dose 0.4 µM)",52.2%,57.5%,55.2%,65.2%,32.9%,50.4%,113%,63%,72.5%,328%,116%,65%,76.2%,57.5%,58.8%,70.1%,177%,158%,304%
"CC(=O)c1c(C)c2cnc(Nc3ccc(N4CCNCC4)cn3)nc2n(C2CCCC2)c1=O [palbociclib] + OCCn1cc(-c2cnc3nnn(Cc4ccc5ncccc5c4)c3n2)cn1 [PF04217903] (first compound 0.04 µM, partner dose 1 µM)",157%,39.3%,199%,84.8%,52.8%,122%,118%,244%,71.9%,81.7%,83.6%,176%,106%,259%,86.1%,81.8%,83.9%,68.8%,38.5%
"O=C(Nc1cccc(Cl)c1)Nc1ncc(CCNc2ncnc3ccsc23)s1 + Cn1cncc1[C@@](N)(c1ccc(Cl)cc1)c1ccc2c(c1)c(-c1cccc(Cl)c1)cc(=O)n2C [tipifarnib] (first compound 0.0008 µM, partner dose 0.01 µM)",127%,120%,97.2%,189%,91.8%,111%,83.2%,74.3%,67.2%,153%,149%,114%,97.8%,137%,203%,62.4%,122%,162%,102%

# Only cleaved PARP positive nuclei fraction (UACC257) and cleaved PARP positive nuclei fraction (MeWo) (two entries from above):
Structure (SMILES) | cleaved PARP positive nuclei fraction (UACC257) | cleaved PARP positive nuclei fraction (MeWo)
Cc1cc(N2CCOCC2)cc2[nH]c(-c3c(NC[C@@H](O)c4cccc(Cl)c4)cc[nH]c3=O)nc12 + NCC(=O)Nc1ccc(-n2nc(C(F)(F)F)cc2-c2ccc3c(ccc4ccccc43)c2)cc1 [OSU03012] (first compound 0.2 µM, partner dose 1 µM) | 53.4% | 183%
C=CCNC1=C2C[C@@H](C)C[C@H](OC)[C@H](O)[C@@H](C)/C=C(\C)[C@H](OC(N)=O)[C@@H](OC)/C=C\C=C(/C)C(=O)NC(=CC1=O)C2=O [Tanespimycin] + NC(=O)Nc1cc(-c2cccc(F)c2)sc1C(=O)N[C@H]1CCCNC1 [AZD7762] (first compound 0.002 µM, partner dose 0.02 µM) | 78.5% | 190%
